According to patent publication US5891467A, “Method for utilizing neutral lipids to modify in vivo release from multivesicular liposomes” (priority 1997, dated 1999):

Test: in vivo
Conditions: dog, csf, 5 mg

CN1CC[C@]23c4c5ccc(O)c4O[C@H]2[C@@H](O)C=C[C@H]3[C@H]1C5 [unencapsulated morphine, morphine]
MRT: 1.6 h
